Part of at least one peptide drawing is inferred or uncertain, most often the ends. Residues, ends and D or L forms follow the SMILES beside them.
System: 19 selected strains of Gram-negative bacteria
Format: cell-based
Conditions: for number of the 19 Gram-negative strains inhibited: peptide at 16 μg/ml (~4 μM)
From the text: FIG. 3. […] FIG. 3A. […] FIG. 3B. […] FIG. 3C. […] FIG. 3D. […] FIG. 3F.

SMILES: CC[C@H](C)[C@H](NC(=O)[C@H](CCCCN)NC(=O)[C@H](CCCNC(=N)N)NC(=O)CNC(=O)[C@H](CC(C)C)NC(=O)[C@H](CCCCN)NC(=O)[C@H](CCC(N)=O)NC(=O)[C@@H](NC(=O)[C@H](CCCNC(=N)N)NC(=O)[C@H](CCCCN)NC(=O)[C@H](CCCNC(=N)N)NC(=O)[C@@H](NC(=O)[C@H](CCCCN)NC(=O)[C@H](CCCNC(=N)N)NC(=O)[C@H](Cc1ccccc1)NC(=O)[C@H](CCCCN)NC(=O)[C@H](CCCCN)NC(=O)[C@H](CCCNC(=N)N)NC(=O)[C@H](CC(C)C)NC(=O)CN)[C@@H](C)O)[C@@H](C)CC)C(=O)NCC(=O)N[C@@H](CCCCN)C(=O)N[C@H](C(=O)NCC(=O)N[C@@H](CCCNC(=N)N)C(=O)N[C@@H](CCCCN)C(=O)N[C@H](C(=O)N[C@@H](Cc1c[nH]c2ccccc12)C(=O)N[C@@H](CCCCN)C(=O)N[C@@H](C)C(=O)N[C@@H](Cc1c[nH]c2ccccc12)C(=O)N[C@@H](CCCNC(=N)N)C(=O)N[C@@H](CCC(=O)O)C(=O)N[C@@H](Cc1ccc(O)cc1)C(=O)O)C(C)C)[C@@H](C)O [CAP-11V1] (H-GLRKKFRKTRKRIQKLGRKIGKTGRKVWKAWREY-OH)
- number of the 19 Gram-negative strains inhibited: 16 strains
- MIC compared with CAP-11 (several of the strains): did reduce the minimal inhibitory concentration

SMILES: CC[C@H](C)[C@H](NC(=O)[C@H](CCCCN)NC(=O)[C@H](CCC(=O)O)NC(=O)[C@H](CCCCN)NC(=O)[C@H](CO)NC(=O)[C@H](CCCCN)NC(=O)[C@H](CCCNC(=N)N)NC(=O)[C@H](Cc1ccccc1)NC(=O)[C@H](Cc1ccccc1)NC(=O)[C@H](C)NC(=O)CNC(=O)[C@H](CC(C)C)NC(=O)[C@@H](N)CC(C)C)C(=O)NCC(=O)N[C@@H](CCCCN)C(=O)N[C@@H](C)C(=O)N[C@@H](Cc1ccccc1)C(=O)N[C@@H](CCCCN)C(=O)N[C@@H](CCCNC(=N)N)C(=O)N[C@H](C(=O)N[C@H](C(=O)N[C@@H](CCC(N)=O)C(=O)N[C@@H](CCCNC(=N)N)C(=O)N[C@H](C(=O)N[C@@H](CCCCN)C(=O)N[C@@H](CC(=O)O)C(=O)N[C@@H](Cc1ccccc1)C(=O)N[C@@H](CC(C)C)C(=O)N[C@@H](CCCNC(=N)N)C(=O)O)[C@@H](C)CC)C(C)C)[C@@H](C)CC [LL-29V2] (H-LLGAFFRKSKEKIGKAFKRIVQRIKDFLR-OH)
- additional strains inhibited compared to LL-29 (19 Gram-negative strains): one

SMILES: CC[C@H](C)[C@H](NC(=O)[C@H](CCCCN)NC(=O)[C@H](C)NC(=O)[C@H](CCCCN)NC(=O)[C@H](CO)NC(=O)[C@H](CCCCN)NC(=O)[C@H](CCCNC(=N)N)NC(=O)[C@H](Cc1ccccc1)NC(=O)[C@H](Cc1ccccc1)NC(=O)[C@H](C)NC(=O)CNC(=O)[C@H](CC(C)C)NC(=O)[C@@H](N)CC(C)C)C(=O)NCC(=O)N[C@@H](CCCCN)C(=O)N[C@@H](C)C(=O)N[C@@H](Cc1ccccc1)C(=O)N[C@@H](CCCCN)C(=O)N[C@@H](CCCNC(=N)N)C(=O)N[C@H](C(=O)N[C@H](C(=O)N[C@@H](CCC(N)=O)C(=O)N[C@@H](CCCNC(=N)N)C(=O)N[C@H](C(=O)N[C@@H](CCCCN)C(=O)N[C@@H](C)C(=O)N[C@@H](Cc1ccccc1)C(=O)N[C@@H](CC(C)C)C(=O)N[C@@H](CCCNC(=N)N)C(=O)O)[C@@H](C)CC)C(C)C)[C@@H](C)CC [LL-29V] (H-LLGAFFRKSKAKIGKAFKRIVQRIKAFLR-OH)
- K. pneumonia strains inhibited (four K. pneumonia strains tested): all four
- number of the 19 Gram-negative strains inhibited: 11 strains

Source: US10435447B2, “Bacteriocidal peptides and uses thereof” (priority 2015, dated 2019)
